The record followed here is PubChem BioAssay AID330 (DTP/NCI, 2004).

This experiment relates to P388 leukemia ip, CD2F1 mice, survival T/C. As to the kind of experiment: NCI In Vivo Anticancer Drug Screen. Data for tumor model P388 Leukemia (intraperitoneal) in CD2F1 (CDF1) mice. To be noted: T/C endpoint: median survival time, higher T/C = longer survival.
[1] abbreviates: dose: 200.0 mg/kg/injection, schedule: Q01DX009 (ip), vehicle: saline with Tween-80.
Setting [2] is: dose: 25.0 mg/kg/injection, schedule: Q01DX009 (ip), vehicle: saline with Tween-80.
Where [3] appears, read: dose: 50.0 mg/kg/injection, schedule: Q01DX009 (ip), vehicle: saline with Tween-80.
Setting [4] is: dose: 400.0 mg/kg/injection, schedule: Q01DX009 (ip), vehicle: saline with Tween-80.
Setting [5] is: dose: 200.0 mg/kg/injection, schedule: Q04DX003 (ip), vehicle: saline with Tween-80.
The mark [6] stands for this setting: dose: 400.0 mg/kg/injection, schedule: Q04DX003 (ip), vehicle: saline with Tween-80.
The mark [7] stands for this setting: dose: 100.0 mg/kg/injection, schedule: Q01DX005 (ip), vehicle: Klucel (hydroxypropylcellulose) (HPC).
Setting [8] is: dose: 200.0 mg/kg/injection, schedule: Q01DX005 (ip), vehicle: Klucel (hydroxypropylcellulose) (HPC).
The mark [9] stands for this setting: dose: 200.0 mg/kg/injection, schedule: Q01DX009 (ip), vehicle: Klucel (hydroxypropylcellulose) (HPC).

The list shows only some results of the screen, not a fair sample: it gathers tests that were run many times, whatever their T/C, doses with no T/C, and many T/C values between a quarter and a half above the control. Other doses and runs of a compound stand elsewhere. T/C: endpoint of the treated group in % of that of the vehicle group. Some entries give survivors of the animals treated and no T/C: the source files T/C as zero there, which appears to mark a toxic dose or a test without result, not a measured value. Some doses without a T/C left all or most animals alive at the check, yet need not have been tolerated: the source hardly ever lists a survival T/C far under the control, and the zero likely stands for such cases as well. Survivors were counted at the toxicity check, usually on the fifth day, unless a day is given; later deaths do not show. Schedules are NCI's codes, taken here to give the interval after Q, in days (D) or hours (H), and the number of doses after X. For survival time, this PubChem deposit counts one and a half times the control or more as active, and values a quarter to a half above the control carry no call in these data; other NCI protocols may use other cut-offs. Brackets with × count equal records among those shown. Some entries hold several experiments; the results are listed from low to high.

On to `CCS/C(C#N)=C/c1ccccc1Cl`, for which, under setting [1], the survivor count is 1 of 6.
With `CN(C)Cc1cn(C)c2ccccc12`, the survivor count runs as follows: (dose: 100.0 mg/kg/injection, schedule: Q01DX005 (ip), vehicle: saline) 0 of 5; (dose: 200.0 mg/kg/injection, schedule: Q01DX005 (ip), vehicle: saline) 0 of 6.
In the case of `Cc1nc2ccccc2nc1CBr`, the T/C runs as follows: (dose: 6.25 mg/kg/injection, schedule: Q01DX009 (ip), vehicle: saline with Tween-80) 125 % of control; (dose: 12.5 mg/kg/injection, schedule: Q01DX009 (ip), vehicle: saline with Tween-80) 125 and 130 % of control. Moreover, the survivor count is, setting by setting: under setting [2], 2 of 6; under setting [3], 1 of 6.
For `c1cnc2nc3c4ccccc4c4ccccc4c3nc2c1`, the survivor count under setting [4] is 2 of 6.
Consider `N#C[S-].N#C[S-].[Au+3].[Au+3].[CH3-].[CH3-].[CH3-].[CH3-]`, for which the survivor count under setting [5] is on record as 3 of 6.
Take `COc1ccc(NC(N)=S)cc1OC`: under setting [6], the survivor count is given as 4 of 6.
Take `C1CCC(NC2CCCCC2)CC1`: the survivor count (dose: 120.0 mg/kg/injection, schedule: Q01DX005 (ip), vehicle: saline) is reported as 0 of 6.
Take `O=[n+]1c2ccccc2n([O-])c2ccccc21.[Cl][Cu][Cl]`: the survivor count by setting is: (dose: 100.0 mg/kg/injection, schedule: Q04DX003 (ip), vehicle: saline with Tween-80) 0 of 6; under setting [5], 0 of 6; under setting [6], 0 of 6.
Consider `CC(=O)Nc1ccc(Cl)cc1C(O)c1ccccc1` (stereo unspecified), for which the survivor count by setting is: under setting [7], 1 of 6; under setting [8], 0 of 6.
On to `O=c1c(O)cc2c(O)oc3c(=O)c(O)c(O)c4c(O)oc1c2c43`, for which, where the note is “dose: 400.0 mg/kg/injection, schedule: Q01DX009 (ip), vehicle: suspension in saline”, the survivor count is recorded as 2 of 6.
As to `COc1ccc(Cc2cc(O)c(OC)cc2O)cc1`, the survivor count (dose: 2.5 mg/kg/injection, schedule: Q01DX009 (ip), vehicle: saline with Tween-80) is listed as 6 of 6.
As for `Nc1cccc(NCc2ccccn2)n1`, the survivor count under setting [8] is 0 of 6.
On to `N#Cc1ccc(NN=NCCCCl)cc1`, for which the survivor count is, setting by setting: (dose: 200.0 mg/kg/injection, schedule: Q01DX005 (ip), vehicle: distilled water + Tween-80) 0 of 6; (dose: 200.0 mg/kg/injection, schedule: Q01DX005 (ip), vehicle: saline with Tween-80) 0 of 6.
Turning to `COC(=O)c1cc2cccn2cn1`, under setting [3], the survivor count is on record as 6 of 6.
On to `[S-]c1n[n+](-c2ccccc2)no1`, for which the survivor count by setting is: (dose: 25.0 mg/kg/injection, schedule: Q01DX009 (ip), vehicle: distilled water + Tween-80) 6 of 6; (dose: 50.0 mg/kg/injection, schedule: Q01DX009 (ip), vehicle: distilled water + Tween-80) 5 of 6; (dose: 100.0 mg/kg/injection, schedule: Q01DX009 (ip), vehicle: distilled water + Tween-80) 3 of 6; (dose: 200.0 mg/kg/injection, schedule: Q01DX009 (ip), vehicle: distilled water + Tween-80) 1 of 6.
`O=C1C=CCC12CC=CC2=O`: the survivor count runs as follows: (dose: 50.0 mg/kg/injection, schedule: Q01DX001 (ip), vehicle: Klucel (hydroxypropylcellulose) (HPC)) 0 of 6; (dose: 100.0 mg/kg/injection, schedule: Q01DX001 (ip), vehicle: Klucel (hydroxypropylcellulose) (HPC)) 0 of 6; (dose: 200.0 mg/kg/injection, schedule: Q01DX001 (ip), vehicle: Klucel (hydroxypropylcellulose) (HPC)) 0 of 6.
`CC(C)N1C(=O)C(C#N)=C(c2ccccc2)SC1c1ccccc1` (stereo unspecified): the survivor count under setting [2] is listed as 6 of 6.
In the case of `CNC(=O)OCc1c(COC(=O)NC)c(-c2ccc(-c3ccccc3)cc2)n(C)c1C`, the T/C is 135 % of control (dose: 1.88 mg/kg/injection, schedule: Q01DX009 (ip), vehicle: distilled water + Tween-80); 144 % of control (dose: 3.75 mg/kg/injection, schedule: Q01DX009 (ip), vehicle: distilled water + Tween-80); 144 % of control (dose: 7.5 mg/kg/injection, schedule: Q01DX009 (ip), vehicle: distilled water + Tween-80); 144 % of control (dose: 30.0 mg/kg/injection, schedule: Q01DX009 (ip), vehicle: distilled water + Tween-80). The survivor count (dose: 40.0 mg/kg/injection, schedule: Q01DX009 (ip), vehicle: distilled water + Tween-80) is reported as 5 of 6.
`CC(O)(c1ccccc1)C1C(c2ccccc2)N1Cc1ccccc1` (stereo unspecified): the survivor count (dose: 200.0 mg/kg/injection, schedule: Q04DX003 (ip), vehicle: saline sonified) is 6 of 6.
`COC(=O)C1C2c3ccccc3C(C1C(=O)OC)[n+]1ccccc12` (stereo unspecified): the survivor count under setting [8] is on record as 3 of 6.
With `CCCN1COC(OCC)C(C)(C)C1` (stereo unspecified), the T/C (dose: 100.0 mg/kg/injection, schedule: Q01DX009 (ip), vehicle: saline with Tween-80) is 133 and 145 % of control. Moreover, under setting [1], the survivor count is 0 of 6.
Consider `CC(C)=CC1CC(=O)OC1(C)C` (stereo unspecified), for which the survivor count runs as follows: (dose: 100.0 mg/kg/injection, schedule: Q04DX002 (ip), vehicle: saline with Tween-80) 2 of 6; (dose: 200.0 mg/kg/injection, schedule: Q04DX002 (ip), vehicle: saline with Tween-80) 1 of 6; (dose: 400.0 mg/kg/injection, schedule: Q04DX002 (ip), vehicle: saline with Tween-80) 0 of 6.
On to `NC(=O)CC(NC(=O)OCC1c2ccccc2-c2ccccc21)C(=O)O` (stereo unspecified), for which the survivor count under setting [7] is recorded as 1 of 6 and the survivor count under setting [8] is listed as 0 of 6.
Consider `CC(C)C(NC(=O)CCl)C(=O)O` (stereo unspecified), for which, for the setting “dose: 400.0 mg/kg/injection, schedule: Q01DX009 (ip), vehicle: Klucel (hydroxypropylcellulose) (HPC)”, the survivor count was 0 of 6.
As to `CCCCn1c(C)nc2c(N)cc(C(F)(F)F)cc21`, for the setting “dose: 12.5 mg/kg/injection, schedule: Q01DX009 (ip), vehicle: Klucel (hydroxypropylcellulose) (HPC)”, the survivor count is recorded as 6 of 6.
As for `N/C(=N\O)c1cn(C2OC(CO)C(O)C2O)c2ncnc(N)c12` (stereo unspecified), the T/C by setting is: (dose: 0.3 mg/kg/injection, schedule: Q01DX009 (ip), vehicle: saline sonified) 140 % of control; (dose: 0.6 mg/kg/injection, schedule: Q01DX009 (ip), vehicle: saline sonified) 145 % of control; (dose: 1.25 mg/kg/injection, schedule: Q01DX009 (ip), vehicle: saline sonified) 140 % of control. Also, the survivor count is given as 6 of 6 (dose: 10.0 mg/kg/injection, schedule: Q01DX009 (ip), vehicle: saline sonified) and 5 of 6 (dose: 20.0 mg/kg/injection, schedule: Q01DX009 (ip), vehicle: saline sonified).
For the compound `Cc1cc(O)c(C)c(C(=O)O)c1`, under setting [4], the survivor count was 2 of 6.
`Brc1nn[nH]n1`: the survivor count under setting [9] is given as 2 of 6.
As for `Cc1ccc(S(=O)(=O)C(=S)N(C)N(C)C)cc1`, for the setting “dose: 50.0 mg/kg/injection, schedule: Q01DX009 (ip), vehicle: Klucel (hydroxypropylcellulose) (HPC)”, the T/C was 126 % of control (2×). The survivor count is 1 of 6 (dose: 100.0 mg/kg/injection, schedule: Q01DX009 (ip), vehicle: Klucel (hydroxypropylcellulose) (HPC)) and 0 of 6 under setting [9].
